Series [1] in a line: general procedure: Fmoc solid-phase peptide synthesis; Wang resin preloaded with the first amino acid (Novabiochem); DIC/HOBt. As to conditions: for final HPLC purity: analytical HPLC.
Series [2] can be described thus: general procedure: Fmoc solid-phase peptide synthesis; Fmoc-Ile-Wang resin; DIC/HOBt. As to conditions: whole synthesis, scale 0.1 mmol.

The values below come from patent US20240270793A1 (UNIVERSITY OF SOUTHAMPTON, priority 2020, published 2024).

Turning to cyclo-(methyl)cys agr leu ile ile phe, in series [1] (late stage modification step), the step yield is given as 76% yield and the “final HPLC purity” value stood at 89% purity.

With cyclo-cys agr leu ile (Aib) phe (Aib)F, the “final HPLC purity” value in series [1] (whole synthesis, scale of the general procedure 0.05-0.2 mmol) is given as 99% purity. The substance further came in with an isolated yield in series [2] (overall) of 25% overall yield. In addition, the isolated mass in series [2] is 18 mg.
